Assay results taken from the supplement of paper PMC6411743.
± gives the standard deviation of the averaged measurements. The list shows a part of the results.

By UniProt entry, the sequences of proteins in these tests, tags left out. Where a name states a change or a piece, a line headed by the entry shows the natural chain unless it says otherwise.
UniProt P43250, whole entry, looked up: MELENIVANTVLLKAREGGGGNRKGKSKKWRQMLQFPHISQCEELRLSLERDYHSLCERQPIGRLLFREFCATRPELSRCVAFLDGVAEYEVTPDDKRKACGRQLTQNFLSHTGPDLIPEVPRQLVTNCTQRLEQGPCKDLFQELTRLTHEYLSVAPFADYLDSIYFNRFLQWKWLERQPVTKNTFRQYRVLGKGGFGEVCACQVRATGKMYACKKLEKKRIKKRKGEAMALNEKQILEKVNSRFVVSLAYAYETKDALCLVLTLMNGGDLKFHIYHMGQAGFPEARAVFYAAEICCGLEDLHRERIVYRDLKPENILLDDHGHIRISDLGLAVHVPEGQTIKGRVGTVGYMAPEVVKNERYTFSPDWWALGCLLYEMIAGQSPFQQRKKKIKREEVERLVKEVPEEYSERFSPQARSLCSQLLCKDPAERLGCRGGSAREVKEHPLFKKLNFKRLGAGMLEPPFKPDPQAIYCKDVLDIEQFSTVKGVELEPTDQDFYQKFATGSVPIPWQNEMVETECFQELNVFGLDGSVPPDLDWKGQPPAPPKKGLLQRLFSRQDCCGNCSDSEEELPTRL
UniProt Q8TAQ2, whole entry: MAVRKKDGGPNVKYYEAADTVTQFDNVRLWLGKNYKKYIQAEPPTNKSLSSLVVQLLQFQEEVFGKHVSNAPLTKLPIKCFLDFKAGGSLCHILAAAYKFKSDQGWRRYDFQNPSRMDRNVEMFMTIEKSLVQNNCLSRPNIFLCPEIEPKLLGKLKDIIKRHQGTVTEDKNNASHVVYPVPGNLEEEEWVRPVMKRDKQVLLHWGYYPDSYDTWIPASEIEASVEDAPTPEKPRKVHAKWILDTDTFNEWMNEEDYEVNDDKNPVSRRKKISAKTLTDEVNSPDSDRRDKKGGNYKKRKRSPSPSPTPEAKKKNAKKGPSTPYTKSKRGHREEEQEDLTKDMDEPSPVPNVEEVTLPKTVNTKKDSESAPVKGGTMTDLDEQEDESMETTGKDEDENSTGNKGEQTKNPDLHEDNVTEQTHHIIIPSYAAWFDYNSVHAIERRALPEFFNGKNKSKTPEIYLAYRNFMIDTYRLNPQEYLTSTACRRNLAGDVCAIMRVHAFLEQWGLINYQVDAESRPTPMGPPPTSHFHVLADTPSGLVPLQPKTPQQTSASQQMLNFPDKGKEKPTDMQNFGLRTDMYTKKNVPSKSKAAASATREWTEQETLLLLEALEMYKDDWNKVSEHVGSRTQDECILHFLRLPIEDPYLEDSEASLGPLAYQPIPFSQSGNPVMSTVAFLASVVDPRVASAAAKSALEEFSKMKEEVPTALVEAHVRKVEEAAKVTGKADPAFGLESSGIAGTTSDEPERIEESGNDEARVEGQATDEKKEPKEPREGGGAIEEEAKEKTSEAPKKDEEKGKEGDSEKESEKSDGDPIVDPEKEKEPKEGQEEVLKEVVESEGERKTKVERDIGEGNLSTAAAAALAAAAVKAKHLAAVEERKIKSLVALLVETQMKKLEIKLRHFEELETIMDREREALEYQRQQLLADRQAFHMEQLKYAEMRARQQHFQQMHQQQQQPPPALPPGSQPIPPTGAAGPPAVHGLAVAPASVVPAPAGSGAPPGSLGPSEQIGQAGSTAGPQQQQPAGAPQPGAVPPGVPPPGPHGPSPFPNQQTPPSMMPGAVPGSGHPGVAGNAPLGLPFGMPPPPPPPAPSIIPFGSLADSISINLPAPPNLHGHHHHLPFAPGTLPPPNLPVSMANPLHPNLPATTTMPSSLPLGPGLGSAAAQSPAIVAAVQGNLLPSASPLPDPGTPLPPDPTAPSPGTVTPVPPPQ
UniProt Q9Y4E5: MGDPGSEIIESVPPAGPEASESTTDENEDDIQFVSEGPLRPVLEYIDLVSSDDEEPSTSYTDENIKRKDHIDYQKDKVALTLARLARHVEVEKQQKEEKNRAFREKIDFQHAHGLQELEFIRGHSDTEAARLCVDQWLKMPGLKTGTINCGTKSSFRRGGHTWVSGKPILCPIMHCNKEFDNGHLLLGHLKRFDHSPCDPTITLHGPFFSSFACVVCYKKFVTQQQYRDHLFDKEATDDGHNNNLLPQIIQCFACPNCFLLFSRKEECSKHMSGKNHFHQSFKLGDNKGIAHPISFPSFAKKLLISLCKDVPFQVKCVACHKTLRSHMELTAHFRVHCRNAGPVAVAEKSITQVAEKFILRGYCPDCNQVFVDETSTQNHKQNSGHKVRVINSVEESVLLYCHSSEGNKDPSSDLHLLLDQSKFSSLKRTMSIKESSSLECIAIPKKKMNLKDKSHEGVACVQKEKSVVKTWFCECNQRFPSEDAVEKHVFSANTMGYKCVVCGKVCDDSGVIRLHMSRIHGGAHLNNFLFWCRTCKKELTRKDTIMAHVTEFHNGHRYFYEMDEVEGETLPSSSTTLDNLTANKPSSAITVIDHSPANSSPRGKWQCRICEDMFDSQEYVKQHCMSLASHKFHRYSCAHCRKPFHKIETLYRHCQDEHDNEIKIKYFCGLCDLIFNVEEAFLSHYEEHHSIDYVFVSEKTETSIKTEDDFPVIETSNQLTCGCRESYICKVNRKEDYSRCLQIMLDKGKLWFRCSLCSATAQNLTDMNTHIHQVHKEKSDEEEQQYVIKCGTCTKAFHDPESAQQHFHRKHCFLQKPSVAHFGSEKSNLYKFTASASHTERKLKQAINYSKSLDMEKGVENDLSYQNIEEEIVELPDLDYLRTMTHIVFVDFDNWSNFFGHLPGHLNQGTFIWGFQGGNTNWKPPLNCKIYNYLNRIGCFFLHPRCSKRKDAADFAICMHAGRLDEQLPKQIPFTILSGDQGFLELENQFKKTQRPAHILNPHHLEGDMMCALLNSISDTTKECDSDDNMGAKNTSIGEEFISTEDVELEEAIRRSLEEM
UniProt O14653: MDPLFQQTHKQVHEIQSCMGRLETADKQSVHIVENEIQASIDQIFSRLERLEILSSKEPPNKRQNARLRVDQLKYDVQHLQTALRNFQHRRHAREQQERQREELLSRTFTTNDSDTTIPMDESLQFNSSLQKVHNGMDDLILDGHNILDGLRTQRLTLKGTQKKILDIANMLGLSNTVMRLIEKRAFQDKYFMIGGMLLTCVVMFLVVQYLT

Compound: Nc1nc2c(ncn2[C@@H]2O[C@H](COP(=O)(O)OP(=O)(O)OP(=O)(O)O)[C@@H](O)[C@H]2O)c(=O)[nH]1 [guanosine triphosphate]
Test: NP40-soluble protein abundance relative to vehicle (solubility fold change) (ratio); higher = more soluble protein in presence of GTP
Protocol: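 Solubility proteome profiling in Jurkat crude lysate. Lysate was treated with Mg-GTP (0.1-10 mM) for 10 min at room temperature and 3 min at 37 °C, then solubilised with 0.8% NP40 and benzonase, followed by ultracentrifugation. Proteins were quantified by TMT10 LC-MS/MS; the value is the NP40-soluble abundance relative to the NP40-processed vehicle, from 3 independent experiments.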

Target | NP40-soluble protein abundance (concentration: 0.1mM) | NP40-soluble protein abundance (concentration: 0.5mM) | NP40-soluble protein abundance (concentration: 1mM) | NP40-soluble protein abundance (concentration: 2mM) | NP40-soluble protein abundance (concentration: 4mM) | NP40-soluble protein abundance (concentration: 6mM) | NP40-soluble protein abundance (concentration: 8mM) | NP40-soluble protein abundance (concentration: 10mM)
F8W9W2 and related entries (UniProt P43250) | 1.06 ± 0.059 | 1.11 ± 0.026 | 1.08 ± 0.053 | 1.1 ± 0.036 | 1.11 ± 0.035 | 1.11 ± 0.06 | 1.1 ± 0.03 | 1.09 ± 0.069
F8VXC8 and related entries (UniProt Q8TAQ2) | 1.02 ± 0.044 | 1.05 ± 0.011 | 1.12 ± 0.074 | 1.14 ± 0.1 | 1.17 ± 0.1 | 1.19 ± 0.15 | 1.23 ± 0.2 | 1.22 ± 0.19
F8VXU5 and related entries (UniProt Q9UBQ0) | 0.989 ± 0.047 | 0.992 ± 0.071 | 0.935 ± 0.049 | 0.884 ± 0.096 | 0.895 ± 0.07 | 0.893 ± 0.073 | 0.853 ± 0.035 | 0.822 ± 0.062
E9PH99 and related entries (UniProt Q9Y4E5) | 0.997 ± 0.04 | 1 ± 0.12 | 0.922 ± 0.031 | 0.999 ± 0.021 | 1.02 ± 0.06 | 1.14 ± 0.049 | 1.26 ± 0.084 | 1.22 ± 0.12
E7EQ34 and related entries (UniProt O14653+E7EQ34) | 0.99 ± 0.044 | 1 ± 0.071 | 1.05 ± 0.082 | 1.05 ± 0.081 | 1.01 ± 0.025 | 1.08 ± 0.082 | 1.07 ± 0.062 | 1.16 ± 0.1
